Measured data: PubChem BioAssay AID686938 (Drosophila RNAi Screening Center, 2013)

- Purpose: 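Looking for CRAC channel components and the factors controlling them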 (primary screen)
- Cell system: Drosophila S2R+ cells
- Reagents: long dsRNA against Drosophila genes, about 0.25 µg dsRNA per well, roughly 10,000 cells
- Timing: 5 days of knock-down before the calcium assay
- Challenge: thapsigargin (SERCA pump blocker) to empty calcium stores; entry signal taken 4 min after adding it
- Detection: 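Per-well fluo-4 fluorescence in two replicates, unnormalised, measured in resting cells and 4 min after store depletion by the SERCA blocker thapsigargin; ratio of the two present in few wells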
- Direction: calcium entry signal: higher = stronger calcium signal after store depletion; entry to resting ratio: higher = more calcium entry relative to resting level; resting calcium signal: higher = higher resting calcium signal
- Rule for the call: 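Called when the plate z-score of the entry-to-rest ratio, mean of duplicates, falls below −3; wells with low overall dye signal (Fmax z below −2) or more than five off-targets excluded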
- Meaning of the calls: active = strongly reduced calcium entry; inactive = no strong reduction
The deposit covers about 23,000 reagents; below is a random part of those with a known target gene and a result. In the full data, 75 (0.33%) are marked active. 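Raw plate signals without normalisation; calls rest on plate z-scores that were not deposited; ratio present for only 364 wells.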 Names joined by + are all predicted targets of the reagent. No sequences are given here. Not stated in the record: the dose of the treatment.

| predicted target | amplicon | calcium entry signal, replicate 1 (fluorescence units) | calcium entry signal, replicate 2 (fluorescence units) | entry to resting ratio | resting calcium signal, replicate 1 (fluorescence units) | resting calcium signal, replicate 2 (fluorescence units) | call |
| --- | --- | --- | --- | --- | --- | --- | --- |
| Act5C | DRSC17723 | 2.54e7 | 3.38e7 | – | 1.25e7 | 1.56e7 | inactive |
| RhoGAPp190 | DRSC20097 | 3.16e7 | 3.10e7 | – | 1.62e7 | 1.28e7 | inactive |
| RhoGAPp190 | DRSC20099 | 3.22e7 | 3.63e7 | – | 1.49e7 | 1.70e7 | inactive |
| CG12078 | DRSC08242 | 2.68e7 | 3.34e7 | – | 1.29e7 | 1.46e7 | inactive |
| form3 | DRSC10195 | 3.40e7 | 3.54e7 | – | 1.46e7 | 1.58e7 | inactive |
| form3 | DRSC10297 | 4.77e7 | 3.03e7 | – | 2.84e7 | 1.46e7 | inactive |
| form3 | DRSC11024 | 3.08e7 | 3.78e7 | – | 1.55e7 | 1.66e7 | inactive |
| amx | DRSC18736 | 4.03e7 | 6.63e7 | – | 2.08e7 | 3.24e7 | inactive |
| Cwc25 | DRSC00545 | 2.15e7 | 3.25e7 | – | 1.34e7 | 1.61e7 | inactive |
| mav | DRSC17149 | 6.20e7 | 5.47e7 | 2.1 | 3.00e7 | 2.32e7 | inactive |
| tn (retired record) | DRSC05768 | 3.90e7 | 4.90e7 | – | 1.80e7 | 2.37e7 | inactive |
| tn (retired record) | DRSC06532 | 2.32e7 | 2.03e7 | – | 1.11e7 | 9.91e6 | inactive |
| Ppa | DRSC04598 | 3.97e7 | 5.44e7 | – | 2.01e7 | 2.48e7 | inactive |
| PGRP-SC1a | DRSC06482 | 3.93e7 | 5.09e7 | – | 1.87e7 | 2.14e7 | inactive |
| CG43253 (retired record) | DRSC09529 | 4.81e7 | 4.95e7 | – | 2.11e7 | 2.38e7 | inactive |
| CG42818 | DRSC01963 | 5.14e7 | 3.61e7 | – | 2.25e7 | 1.81e7 | inactive |
| CG5335 | DRSC06931 | 3.80e7 | 3.58e7 | – | 1.84e7 | 1.68e7 | inactive |
| CG31128 | DRSC13675 | 3.73e7 | 4.47e7 | – | 1.71e7 | 2.21e7 | inactive |
| Ssk | DRSC10756 | 3.03e7 | 4.36e7 | – | 1.49e7 | 3.13e7 | inactive |
| CG12541 | DRSC17483 | 3.61e7 | 3.06e7 | – | 1.58e7 | 1.44e7 | inactive |
| CG12541 | DRSC17839 | 3.21e7 | 3.69e7 | – | 1.54e7 | 1.78e7 | inactive |
| CG8010 | DRSC20072 | 3.55e7 | 4.45e7 | – | 1.72e7 | 1.88e7 | inactive |
| CG2162 | DRSC08557 | 3.59e7 | 2.15e7 | – | 2.52e7 | 9.68e6 | inactive |
| kirre | DRSC18785 | 3.92e7 | 5.73e7 | 2 | 1.95e7 | 2.37e7 | inactive |
| eIF4B | DRSC20983 | 4.16e7 | 3.41e7 | – | 1.99e7 | 1.53e7 | inactive |
| CG2218 | DRSC15428 | 3.48e7 | 4.52e7 | – | 1.71e7 | 2.22e7 | inactive |
| Obp50b + Obp50c | DRSC21818 | 2.87e7 | 3.81e7 | – | 1.67e7 | 1.56e7 | inactive |
| Jhbp16 | DRSC15039 | 3.67e7 | 4.98e7 | – | 5.36e7 | 2.06e7 | inactive |
| Rab18 | DRSC18702 | 2.98e7 | 3.41e7 | – | 1.46e7 | 1.66e7 | inactive |
| ebi | DRSC00816 | 3.18e7 | – | – | 2.06e7 | – | inactive |
| CG18808 | DRSC08539 | 3.09e7 | 4.41e7 | – | 1.51e7 | 1.89e7 | inactive |
| CG5662 | DRSC19957 | 4.21e7 | 2.64e7 | – | 2.24e7 | 1.40e7 | inactive |
| nudC | DRSC11096 | 3.24e7 | 4.59e7 | – | 1.68e7 | 1.95e7 | inactive |
| nudC | DRSC11097 | 2.93e7 | 4.13e7 | – | 1.62e7 | 1.89e7 | inactive |
| CG43693 | DRSC09086 | 3.64e7 | 4.72e7 | – | 1.96e7 | 2.17e7 | inactive |
| CG43693 | DRSC10625 | 4.18e7 | 3.03e7 | – | 2.74e7 | 1.37e7 | inactive |
| out | DRSC19347 | 3.88e7 | 4.42e7 | – | 1.86e7 | 1.83e7 | inactive |
| CG17726 | DRSC15255 | 5.70e7 | 2.34e7 | – | 2.63e7 | 1.26e7 | inactive |

Laid out differently: results already given
{"predicted target":"Obp50b + Obp50c","amplicon":"DRSC21818","calcium entry signal, replicate 1 (fluorescence units)":2.87e7,"calcium entry signal, replicate 2 (fluorescence units)":3.81e7,"resting calcium signal, replicate 1 (fluorescence units)":1.67e7,"resting calcium signal, replicate 2 (fluorescence units)":1.56e7,"call":"inactive"}
{"predicted target":"Jhbp16","amplicon":"DRSC15039","calcium entry signal, replicate 1 (fluorescence units)":3.67e7,"calcium entry signal, replicate 2 (fluorescence units)":4.98e7,"resting calcium signal, replicate 1 (fluorescence units)":5.36e7,"resting calcium signal, replicate 2 (fluorescence units)":2.06e7,"call":"inactive"}
{"predicted target":"Rab18","amplicon":"DRSC18702","calcium entry signal, replicate 1 (fluorescence units)":2.98e7,"calcium entry signal, replicate 2 (fluorescence units)":3.41e7,"resting calcium signal, replicate 1 (fluorescence units)":1.46e7,"resting calcium signal, replicate 2 (fluorescence units)":1.66e7,"call":"inactive"}
{"predicted target":"ebi","amplicon":"DRSC00816","calcium entry signal, replicate 1 (fluorescence units)":3.18e7,"resting calcium signal, replicate 1 (fluorescence units)":2.06e7,"call":"inactive"}
{"predicted target":"CG18808","amplicon":"DRSC08539","calcium entry signal, replicate 1 (fluorescence units)":3.09e7,"calcium entry signal, replicate 2 (fluorescence units)":4.41e7,"resting calcium signal, replicate 1 (fluorescence units)":1.51e7,"resting calcium signal, replicate 2 (fluorescence units)":1.89e7,"call":"inactive"}
{"predicted target":"CG5662","amplicon":"DRSC19957","calcium entry signal, replicate 1 (fluorescence units)":4.21e7,"calcium entry signal, replicate 2 (fluorescence units)":2.64e7,"resting calcium signal, replicate 1 (fluorescence units)":2.24e7,"resting calcium signal, replicate 2 (fluorescence units)":1.40e7,"call":"inactive"}

The list goes on.
| predicted target | amplicon | calcium entry signal, replicate 1 (fluorescence units) | calcium entry signal, replicate 2 (fluorescence units) | entry to resting ratio | resting calcium signal, replicate 1 (fluorescence units) | resting calcium signal, replicate 2 (fluorescence units) | call |
| --- | --- | --- | --- | --- | --- | --- | --- |
| C15 | DRSC13495 | 5.75e7 | 3.04e7 | – | 2.41e7 | 1.39e7 | inactive |
| C15 | DRSC14169 | 4.31e7 | 3.80e7 | – | 5.76e7 | 1.73e7 | inactive |
| Cyp4c3 | DRSC16631 | 4.19e7 | 3.81e7 | – | 1.82e7 | 1.80e7 | inactive |
| eag | DRSC19067 | 3.79e7 | 3.55e7 | – | 1.83e7 | 1.52e7 | inactive |
| eag | DRSC20328 | 4.32e7 | 3.52e7 | – | 2.31e7 | 1.64e7 | inactive |
| gig | DRSC11351 | 2.61e7 | 3.83e7 | – | 1.23e7 | 2.73e7 | inactive |
| LysB | DRSC08673 | 3.18e7 | 2.89e7 | – | 1.54e7 | 1.45e7 | inactive |
| CG34026 | DRSC17616 | 2.44e7 | 3.38e7 | – | 1.22e7 | 1.50e7 | inactive |
| CG15548 | DRSC15086 | 4.51e7 | 5.99e7 | – | 2.37e7 | 2.47e7 | inactive |
| LS2 | DRSC04340 | 1.85e7 | 2.71e7 | – | 1.05e7 | 1.26e7 | inactive |
| UQCR-Q | DRSC10886 | 3.93e7 | 5.91e7 | – | 1.75e7 | 2.40e7 | inactive |
| MtnD | DRSC22733 | 4.06e7 | 3.31e7 | – | 2.29e7 | 1.57e7 | inactive |
| gce | DRSC19613 | 1.68e7 | 1.93e7 | – | 9.81e6 | 9.83e6 | inactive |
| gce | DRSC19974 | 1.78e7 | 2.39e7 | – | 9.78e6 | 9.75e6 | inactive |
| CG12071 | DRSC14471 | 2.90e7 | 4.19e7 | – | 1.69e7 | 1.97e7 | inactive |
| CG12071 | DRSC22972 | 5.57e7 | 2.98e7 | – | 2.84e7 | 1.27e7 | inactive |
| AstCC | DRSC02404 | 3.39e7 | 4.94e7 | – | 1.63e7 | 2.15e7 | inactive |
| CG43759 | DRSC19464 | 3.94e7 | 3.97e7 | – | 1.79e7 | 1.66e7 | inactive |
| CG43759 | DRSC19543 | 5.49e7 | 5.02e7 | – | 3.09e7 | 2.48e7 | inactive |
| CG14397 | DRSC02381 | 4.91e7 | 4.57e7 | – | 2.44e7 | 2.07e7 | inactive |
